From patent publication US20260069523A1, “SKIN CARE COMPOSITION AND USE THEREOF” (NANJING NUTRABUILDING BIO-TECH CO., LTD., priority 2023, published 2026)
At least one structure is not confirmed: it was looked up by name or label, or the drawing left a doubt.

System: tyrosinase
Experiment: Whitening test: inhibition of tyrosinase
Settings: 1 mg/mL sample solutions (combinations mixed 1:1 or 1:1:1), tyrosine substrate, 30° C., absorbance 475 nm

SMILES: COc1cc(CCC(=O)CC(=O)CCc2ccc(O)c(OC)c2)ccc1O [THC, tetrahydrocurcumin]
- inhibition rate on tyrosinase: about 77%
